According to publication PMC10163288:
The other results are listed elsewhere or left out.

B1: il2ra_site2_3nfp_sap_9_mot_HHH_b1_04622_000000276_0001_1_16_H_._HHH_b1_04070_0001_0000800040_0000001_0_0001 (protein)
chain: SDEEVAEYIRIALELAKEAARDPRIRELIEEVLKEFEEAEEKNDEEALSEVAQKAMELSKEAARS
B2: il2ra_site2_3nfp_sap_18_mot_ems_p1-14H-GBL-14H-GABBL-15H_0148_0001_0001_0002_000000194_0001_18_31_H_._23ebfa62fd02fe94bef511ea015e2715_0001_0001_0000100007_0000 … (protein)
chain: SSSDEEEREVEELIKELEELLRQGNPEEVERVALRAAALAARANNFELFARVVELMHKAVRSSSS
B3: il2ra_site2_3nfp_normal_mot_HHH_b1_00660_af2_000000090_0001_40_57_H_._HHH_b1_05967_0001_0000100007_0000001_0 (protein)
chain: SSSSDKEEEIERLLEQLKRAIEEGDEELARKLIREIAQLIYELQDFELFAILNELRALLASSSSS
B4: il2ra_site1_2b5i_sap_25_mot_HHH_b1_06833_000000178_0001_1_19_H_._806091bfbcaa362723928a6cd30e0ec0_0001_af2_0001_0000600031_0000001_0_0001_af2pred_dldesign_0_af2 … (protein)
chain: SSSSSSGKEVRRLILEADRLKKAGKEEEAKKLLEEALKLAKELGSKNLVKAIESALESISSSSSS
B5: il2ra_site1_2b5i_sap_16_mot_HHH_b2_03886_000000131_0001_1_17_H_._HHH_b2_08237_0001_0000100005_0000001_0_0001_af2pred_dldesign_0_af2pred (protein)
chain: SSSSSSPEVEEKVNAYKEAAAKEEDPLLRYKLLKLALKIAKKGNNEELVAELEKLLKELESSSSS
B6: il2ra_site2_3nfp_sap_21_mot_HHH_b1_06577_af2_000000152_0001_20_36_H_._HHH_b2_07686_0001_0000600063_0000001_0_0001 (protein)
chain: SSSSDEDEERVEKLIEEIERLLEEGDRDEAARLLLEATELAARINNDELARKLLELFLKIQSSSS
B7: il2ra_site2_3nfp_normal_mot_HHH_b1_03818_000000217_0001_1_20_H_._HHH_b2_04788_0001_0000100003_0000001_0 (protein)
chain: SSSSDLEEEALKLLIEAYKLAKEGNPEEARKLLERAEELAEEGGDEELLRLIELALEAFEDSSSS
B8: il2ra_site1_2b5i_normal_mot_a7d4ab743ae57deeac5d741f7278d18b_0001_af2_000000162_0001_36_49_H_._HHH_b2_01797_af2_0001_0000300004_0000001_0_af2pred_dldesign_0_af2 … (protein)
chain: SSSSSPESEEALEAAKRAMEAAHASGDAVLLYRVYKLAKKMLERLEDAEAVAALEEHYARLSSSS
B9: il2ra_site2_3nfp_sap_21_mot_HHH_b1_04032_000000208_0001_43_56_H_._HHH_b2_02520_af2_0001_0000400008_0000001_0_0001_af2pred_0001_1_af2pred_swapped (protein)
chain: SSSSSEEVEELIERVEELLKKGDVEEAHRVLRRAAKLAREAGDEELLEELWRLLELVRRLESSSS
B10: il2ra_site1_2b5i_normal_mot_HHH_b1_01495_af2_000000272_0001_42_56_H_._HHH_b1_03931_0001_0000200011_0000001_0 (protein)
chain: SSSSSSEEFEEVFEKARKIAEELNNPSAERFVELARESYEEDGDPRVLEDLEFMLERLEKSSSSS
B11: il2ra_site1_3nfp_sap_13_mot_HHH_b1_07440_af2_000000266_0001_1_19_H_._HHH_b2_07874_af2_0001_0000100006_0000001_1_0001_af2pred_0001_af2pred_1 (protein)
chain: DELEERVRELAEKGDNIQVAKLLDEVKRRVARGEIPPEDLRELLRIVLELLGDPAVEFMLRLVEE
B12: il2ra_site1_3nfp_sap_11_mot_HHH_b1_00630_af2_000000193_0001_42_55_H_._9d49f0d3562fbcf9434e2f7f4344708e_0001_0001_0000100002_0000001_0_0001_af2pred_0001_af2pred_ … (protein)
chain: SSSSDEARRAEELVKEISRLNLEGDPEKARELLRELEEIAKKLNSPIAELLVRRLEREIESSSSS
B13: il2ra_site2_2erj_sap_20_mot_HHH_b2_01275_af2_000000073_0001_23_39_H_._HHH_b2_07682_0001_0000700054_0000001_0_0001 (protein)
chain: SSSSNEELRELYELANEVMELAARGNPEEAEKVAEEAEELAKKLNSENAEEHLKALRKRLSSSSS
B14: il2ra_site2_3nfp_sap_20_mot_HHH_b1_01819_af2_000000097_0001_1_20_H_._640647f06b73f3c3f2841c6adbc5d152_0001_af2_0001_0000700025_0000001_0_0001 (protein)
chain: SSSSDEFKERAKRMIEAVIRSLRSLGDEETLERVEELLEQFEKEGDPRYALRIYELALEAYSSSS
B15: il2ra_site1_2b5i_normal_mot_f5ff40796168375b462bec8614a1db4a_0001_1_000000138_0001_53_65_H_._HHH_b2_04240_0001_0000100003_0000001_0 (protein)
chain: SSSSSTVEESVRDLLEEAQERYKEGDEERVRSILHLARASARRYNDEEAEELIKEVEEELSSSSS
B16: il2ra_site1_2b5i_normal_mot_0e5a94e4a5addaac739760efb25f0f5d_0001_000000246_0001_18_32_H_._HHH_b2_02424_0001_0000100006_0000001_0_af2pred_0001_af2pred_1 (protein)
chain: SSSSDDEERRKLRIVARAIFVLLAEGDEELVKELEELDRRASESGDPKYLEEALRLAEEILSSSS
B17: il2ra_site1_2b5i_normal_mot_f5ff40796168375b462bec8614a1db4a_0001_1_000000138_0001_53_65_H_._HHH_b1_06846_0001_0000400019_0000001_0 (protein)
chain: SSSSSNAEELAEELLEEAERLIEQGNEKEARSILHLARAVARRAGNEELLRRIEELLRELSSSSS
B18: il2ra_site2_2erj_normal_mot_HHH_b1_08185_000000063_0001_41_55_H_._HHH_b1_06795_af2_0001_0000100001_0000001_0 (protein)
chain: SSSSSEEEEELKRFIEELVREFGLSEEEKEKLEESARVALQAGLNVELIKRYLELAAEDSSSSSS

molecular target: il2ra, P01589; experiment: yeast display titration

Apparent Kd, inactive:
B1 no binding seen
B2 no binding seen
B3 no binding seen
B4 no binding seen
B5 no binding seen
B6 no binding seen
B7 no binding seen
B8 no binding seen
B9 no binding seen
B10 no binding seen
B11 no binding seen
B12 > 711 nM
B13 no binding seen
B14 no binding seen
B15 no binding seen
B16 no binding seen
B17 no binding seen
B18 no binding seen

For convenience, part of the list above.
Apparent Kd, inactive:
B12 > 711 nM
B13 no binding seen
B14 no binding seen
B15 no binding seen
B16 no binding seen
